# Measured values published in the supplement of paper PMC7666118.
# The list shows a part of the results.
# Target: T1, SARS2 (UniProt Q9NP81)
# T1 sequence (whole entry): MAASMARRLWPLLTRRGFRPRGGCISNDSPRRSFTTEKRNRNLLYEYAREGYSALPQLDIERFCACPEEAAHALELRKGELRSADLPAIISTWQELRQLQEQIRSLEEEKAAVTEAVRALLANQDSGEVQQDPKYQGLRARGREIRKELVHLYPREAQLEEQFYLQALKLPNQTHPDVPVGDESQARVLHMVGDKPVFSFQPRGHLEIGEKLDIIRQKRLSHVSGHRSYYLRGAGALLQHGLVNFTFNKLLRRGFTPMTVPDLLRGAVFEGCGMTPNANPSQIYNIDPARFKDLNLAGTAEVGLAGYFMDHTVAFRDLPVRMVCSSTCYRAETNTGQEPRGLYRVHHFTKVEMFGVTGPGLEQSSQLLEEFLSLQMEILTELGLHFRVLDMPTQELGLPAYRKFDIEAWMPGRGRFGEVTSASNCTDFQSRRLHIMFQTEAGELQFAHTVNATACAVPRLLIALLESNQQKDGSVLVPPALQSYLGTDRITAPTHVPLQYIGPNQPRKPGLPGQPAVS
# Assay: dose-dependent thermal stabilisation call (2D-TPP, DLPTP, 10% FDR) (binary (1 = stabilised)); higher = stabilised by the compound
# Details: system: HL-60 intact cells; concentration range 0.04-10 µM
# Procedure: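 2D thermal proteome profiling in intact HL-60 cells treated with BRD-3811 (0, 0.04, 0.29, 2, 10 uM) for 90 min at 37 C, then heated 3 min at one of 12 temperatures (42-63.9 C). Soluble protein was quantified by TMT10 MS. The value is the DLPTP call of the paper: dose-dependent thermal stabilisation over all temperatures at 10% FDR (F-test of a dose-response against a flat model); one experiment, one call per tested protein.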
row,SMILES,dose-dependent thermal stabilisation call
1,COc1ccc(Cn2ccc3cc(C)c(C(=O)NO)cc32)cc1,inactive: 0
